According to article PMC13651886:
These are yes or no findings as the source states them, for the method shown. In cells and extracts the contact can be indirect. Some entries that bind do so weakly or less than the wild type.

Chains of the proteins cited; added tags and fusions are not shown.
UniProt P35222: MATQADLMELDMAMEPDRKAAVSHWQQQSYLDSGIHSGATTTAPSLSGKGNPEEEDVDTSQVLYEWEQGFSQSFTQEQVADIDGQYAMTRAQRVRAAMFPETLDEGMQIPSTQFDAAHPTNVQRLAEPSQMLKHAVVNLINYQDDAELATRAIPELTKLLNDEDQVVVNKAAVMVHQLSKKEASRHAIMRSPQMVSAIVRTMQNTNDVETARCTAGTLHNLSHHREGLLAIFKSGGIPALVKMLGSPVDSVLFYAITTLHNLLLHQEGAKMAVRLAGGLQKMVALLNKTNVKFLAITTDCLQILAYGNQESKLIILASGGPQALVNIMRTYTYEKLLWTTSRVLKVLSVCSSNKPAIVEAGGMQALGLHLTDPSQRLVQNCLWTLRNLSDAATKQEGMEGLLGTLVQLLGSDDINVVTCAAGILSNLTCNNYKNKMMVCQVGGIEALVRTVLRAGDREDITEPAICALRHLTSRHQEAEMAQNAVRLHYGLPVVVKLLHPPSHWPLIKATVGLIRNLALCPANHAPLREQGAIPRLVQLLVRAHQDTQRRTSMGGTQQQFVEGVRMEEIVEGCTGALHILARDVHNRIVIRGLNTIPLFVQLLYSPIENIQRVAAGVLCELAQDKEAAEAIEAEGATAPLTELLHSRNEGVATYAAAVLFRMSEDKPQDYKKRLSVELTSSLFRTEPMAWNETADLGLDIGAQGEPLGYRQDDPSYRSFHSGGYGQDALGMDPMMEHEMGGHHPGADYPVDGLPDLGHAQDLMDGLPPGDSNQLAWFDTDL
UniProt Q96BN8: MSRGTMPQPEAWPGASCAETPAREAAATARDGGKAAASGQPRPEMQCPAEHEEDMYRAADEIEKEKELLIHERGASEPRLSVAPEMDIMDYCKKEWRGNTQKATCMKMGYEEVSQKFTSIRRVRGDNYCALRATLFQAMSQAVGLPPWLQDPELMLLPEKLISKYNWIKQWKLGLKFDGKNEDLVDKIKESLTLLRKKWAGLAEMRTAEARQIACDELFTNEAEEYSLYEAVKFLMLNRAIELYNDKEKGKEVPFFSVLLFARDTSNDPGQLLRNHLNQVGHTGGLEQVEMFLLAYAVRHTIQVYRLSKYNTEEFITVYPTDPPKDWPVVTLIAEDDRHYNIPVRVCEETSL

Target: β-catenin (human (endogenous in HaCaT)) (UniProt P35222)
Test: co-IP; anti-β-catenin (BD, 610153) coupled to Protein G Sepharose beads; lysates of WT and OTULIN KD HaCaTs in NP-40 buffer (50 mM tris-HCl pH 7.6, 1 mM EDTA, 150 mM NaCl, 1% NP-40, 0.5% sodium deoxycholate, 0.1% SDS), incubated overnight, washed three times; cells untreated or treated with MG132 for 16 hours; blotted for OTULIN

binding: binds
Substance: OTULIN (OTU DUB with linear linkage specificity) (from UniProt Q96BN8 1-352) (enzyme)
